# PubChem BioAssay AID1259308 – NCATS, 2017
# Aim: 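Genes whose loss raises luciferase production in HEK293 cells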 (primary screen)
# Cells: human HEK293 embryonic kidney cells stably expressing firefly luciferase (HEK-CMV-Luc2-Hygro)
# Reagents: single siRNA against human genes, 0.8 pmol siRNA per well
# Duration: 72 h
# Measurement: 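Reporter luminescence and viable-cell signal on separate replicate plates, given as percent of non-targeting control and median/MAD z-scores, plus per-cell luciferase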
# Direction: total luciferase, z-score and total luciferase, % of control: higher = more reporter protein produced; luciferase per cell, z-score: higher = more reporter output per viable cell
# Hit rule: 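An siRNA counts as active if its total luciferase robust z-score exceeds 3; genes with two or more such siRNAs out of three were retested with fresh siRNAs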
# Meaning of the calls: active = raised luciferase; inactive = no rise
# In all, the deposit lists about 59,000 reagents; shown is a random part of them. About 1,510 of them (2.6%) were called active. 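Calls use total luciferase alone and ignore viability, so some active siRNAs may act by altering cell number.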 The numbers tell different reagents against one gene apart. Not all columns of the deposit are shown.
gene,siRNA no.,"total luciferase, z-score","total luciferase, % of control","luciferase per cell, z-score",Call
TSC22D3 (TSC22 domain family member 3),1,-0.0465,81,-0.329,inactive
TSC22D3 (TSC22 domain family member 3),2,1.92,120,0.796,inactive
TSC22D3 (TSC22 domain family member 3),3,0.152,84.9,0.453,inactive
MAG (myelin associated glycoprotein),1,0.182,85.5,0.529,inactive
MAG (myelin associated glycoprotein),2,-1.74,47.3,-2.39,inactive
MAG (myelin associated glycoprotein),3,-0.197,78,0.218,inactive
TLL1 (tolloid like 1),1,-0.0381,81.1,-0.554,inactive
TLL1 (tolloid like 1),2,2.58,133,1.32,inactive
TLL1 (tolloid like 1),3,-0.44,73.1,-0.845,inactive
TNFRSF17 (TNF receptor superfamily member 17),1,1.4,110,0.0851,inactive
TNFRSF17 (TNF receptor superfamily member 17),2,-0.171,78.5,0.797,inactive
TNFRSF17 (TNF receptor superfamily member 17),3,0.021,82.3,0.349,inactive
PHF8 (PHD finger protein 8),1,0.751,96.8,0.268,inactive
PHF8 (PHD finger protein 8),2,0.139,84.6,-0.255,inactive
PHF8 (PHD finger protein 8),3,1.89,119,0.819,inactive
PIK3CB,1,2.83,138,2.25,inactive
PIK3CB,2,0.24,86.7,0.211,inactive
PIK3CB,3,-0.49,72.1,-1.04,inactive
CYP11B1 (cytochrome P450 family 11 subfamily B member 1),1,2,122,1.76,inactive
CYP11B1 (cytochrome P450 family 11 subfamily B member 1),2,0.436,90.6,0.00334,inactive
CYP11B1 (cytochrome P450 family 11 subfamily B member 1),3,-1.32,55.7,-1.88,inactive
GNB4 (G protein subunit beta 4),1,-0.341,75.1,-0.297,inactive
GNB4 (G protein subunit beta 4),2,-0.274,76.4,-0.489,inactive
GNB4 (G protein subunit beta 4),3,-1.11,59.8,-0.754,inactive
PSMB2 (proteasome 20S subunit beta 2),1,0.855,98.9,1.29,inactive
PSMB2 (proteasome 20S subunit beta 2),2,0.521,92.3,0.457,inactive
PSMB2 (proteasome 20S subunit beta 2),3,0.795,97.7,2.27,inactive
C3orf22 (chromosome 3 open reading frame 22),1,-0.393,74.1,-0.47,inactive
C3orf22 (chromosome 3 open reading frame 22),2,-0.408,73.8,-0.553,inactive
C3orf22 (chromosome 3 open reading frame 22),3,2.24,126,2.49,inactive
CARMN (cardiac mesoderm enhancer-associated non-coding RNA),1,0.159,85,1.04,inactive
CARMN (cardiac mesoderm enhancer-associated non-coding RNA),2,0.481,91.4,0.229,inactive
CARMN (cardiac mesoderm enhancer-associated non-coding RNA),3,0.503,91.9,0.00585,inactive
NEK8 (NIMA related kinase 8),1,-0.33,75.3,-0.613,inactive
NEK8 (NIMA related kinase 8),2,1.34,109,1.77,inactive
NEK8 (NIMA related kinase 8),3,-0.142,79.1,-0.315,inactive
DNAJC4 (DnaJ heat shock protein family (Hsp40) member C4),1,1.72,116,1.26,inactive
DNAJC4 (DnaJ heat shock protein family (Hsp40) member C4),2,0.274,87.3,0.29,inactive
DNAJC4 (DnaJ heat shock protein family (Hsp40) member C4),3,-0.912,63.8,-1.41,inactive
USP51 (ubiquitin specific peptidase 51),1,0.302,87.9,0.0378,inactive
USP51 (ubiquitin specific peptidase 51),2,-1.84,45.2,-1.05,inactive
USP51 (ubiquitin specific peptidase 51),3,-2.15,39.1,-2.72,inactive
VAX2 (ventral anterior homeobox 2),1,-0.261,76.7,0.297,inactive
VAX2 (ventral anterior homeobox 2),2,1.19,106,0.819,inactive
VAX2 (ventral anterior homeobox 2),3,-0.572,70.5,-0.002,inactive
"MOS (MOS proto-oncogene, serine/threonine kinase)",1,-0.241,77.1,-0.582,inactive
"MOS (MOS proto-oncogene, serine/threonine kinase)",2,0.634,94.5,0.221,inactive
"MOS (MOS proto-oncogene, serine/threonine kinase)",3,-0.829,65.4,-1.5,inactive
TIGIT (T cell immunoreceptor with Ig and ITIM domains),1,-1.1,60.1,-0.905,inactive
TIGIT (T cell immunoreceptor with Ig and ITIM domains),2,1.35,109,1.05,inactive
TIGIT (T cell immunoreceptor with Ig and ITIM domains),3,1.14,105,1.52,inactive
MICU1 (mitochondrial calcium uptake 1),1,-0.459,72.8,-0.221,inactive
MICU1 (mitochondrial calcium uptake 1),2,-0.697,68,-1.06,inactive
MICU1 (mitochondrial calcium uptake 1),3,-0.233,77.2,0.257,inactive
CRLF2 (cytokine receptor like factor 2),1,-0.226,77.4,1.4,inactive
CRLF2 (cytokine receptor like factor 2),2,0.092,83.7,-0.435,inactive
CRLF2 (cytokine receptor like factor 2),3,0.671,95.2,0.704,inactive
PTPRU (protein tyrosine phosphatase receptor type U),1,-0.986,62.3,-0.538,inactive
PTPRU (protein tyrosine phosphatase receptor type U),2,-0.868,64.6,-1.28,inactive
PTPRU (protein tyrosine phosphatase receptor type U),3,-0.00814,81.7,-0.742,inactive
ORMDL3 (ORMDL sphingolipid biosynthesis regulator 3),1,2,122,3.7,inactive
ORMDL3 (ORMDL sphingolipid biosynthesis regulator 3),2,-1.24,57.3,-0.392,inactive
ORMDL3 (ORMDL sphingolipid biosynthesis regulator 3),3,0.86,99,1.25,inactive
ERBB4 (erb-b2 receptor tyrosine kinase 4),1,0.85,98.8,0.415,inactive
ERBB4 (erb-b2 receptor tyrosine kinase 4),2,-1.19,58.2,-1.81,inactive
ERBB4 (erb-b2 receptor tyrosine kinase 4),3,-0.596,70,-0.853,inactive
SCNM1 (sodium channel modifier 1),1,-2.23,37.5,-2.33,inactive
SCNM1 (sodium channel modifier 1),2,0.306,88,-0.153,inactive
SCNM1 (sodium channel modifier 1),3,-0.489,72.2,-0.231,inactive
MROH2B (maestro heat like repeat family member 2B),1,-0.919,63.6,-0.393,inactive
MROH2B (maestro heat like repeat family member 2B),2,2.51,132,1.47,inactive
MROH2B (maestro heat like repeat family member 2B),3,-1.46,52.9,-1.74,inactive
LSP1P3 (LSP1 pseudogene 3),1,-0.335,75.2,-0.0276,inactive
LSP1P3 (LSP1 pseudogene 3),2,0.424,90.3,0.714,inactive
LSP1P3 (LSP1 pseudogene 3),3,-0.247,77,0.327,inactive

Sorted by “total luciferase, z-score” (highest first): some entries from above.
gene,siRNA no.,"total luciferase, z-score","total luciferase, % of control","luciferase per cell, z-score",Call
TLL1 (tolloid like 1),2,2.58,133,1.32,inactive
TSC22D3 (TSC22 domain family member 3),2,1.92,120,0.796,inactive
TNFRSF17 (TNF receptor superfamily member 17),1,1.4,110,0.0851,inactive
MAG (myelin associated glycoprotein),1,0.182,85.5,0.529,inactive
TSC22D3 (TSC22 domain family member 3),3,0.152,84.9,0.453,inactive
TLL1 (tolloid like 1),1,-0.0381,81.1,-0.554,inactive
TSC22D3 (TSC22 domain family member 3),1,-0.0465,81,-0.329,inactive
MAG (myelin associated glycoprotein),3,-0.197,78,0.218,inactive
TLL1 (tolloid like 1),3,-0.44,73.1,-0.845,inactive
MAG (myelin associated glycoprotein),2,-1.74,47.3,-2.39,inactive
